Results: PubChem BioAssay AID445 (National Center for Advancing Translational Sciences (NCATS), 2006)
The other results are listed elsewhere or left out. The main result of the screen is listed elsewhere. These columns were measured beside it and carry no call. Most of these compounds were active or inconclusive in the main read-out, so they are no random draw. Potencies come from curve fits of mixed quality, noted in brackets.

Test: IkB Signaling
Settings: ABC-DLBCL IkBa-CBG/CBR dual luciferase ratio (green luciferase fused to IkBa over red control in OCI-Ly3 lymphoma cells), 4 h
Summary of the method: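 In this assay, an IκBα–CBG68 fusion accumulates when IKK-driven degradation is blocked; native CBR normalizes for cell number. OCI-Ly3 cells were treated 4 h with compound and doxycycline, then green and red light read after Chroma-Glo addition.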

[1] = measured here: control luc red channel unless noted
[2] = measured here: IkB-luc green channel
[3] = measured here: control luc red channel

Cc1cc(C)cc(N(CC(=O)Nc2ccc(C(F)(F)F)cc2)S(=O)(=O)c2c(C)[nH]c(=O)[nH]c2=O)c1
AC50 [1]: 15.8 µM [falling, partial curve]

Cn1c(NCc2ccccc2F)nc2ccccc21
AC50 [1]: 39.8 µM [falling, single point]

N=c1n(CCO)c2ccccc2n1CCOc1ccc(F)cc1
AC50 [1]: 20 µM [falling, partial curve, poor fit]

Cc1cccc(C)c1NC(=O)C1CCN(S(=O)(=O)c2cccc3nsnc23)CC1
AC50 [1]: 0.00631 µM [falling, full curve, poor fit]

CCOC(=O)C1CCN(C(=O)c2ccc3c(c2)sc2nc(-c4ccc(OCC)cc4)cn23)CC1
AC50 [1]: 15.8 µM [falling, partial curve]

COc1ccc(-c2nc(SCC(=O)NC3CCCC3)c(-c3ccccc3)[nH]2)cc1OC
AC50 [1]: 39.8 µM [falling, single point]

CC(=O)c1cccc(-n2c(CCC(=O)O)ccc2-c2ccccc2)c1
AC50 [1]: 15.8 µM [falling, single point]

CCOc1ccccc1C(=O)N1CCc2cc(OC)c(OC)cc2C1COc1ccc2c(C)cc(=O)oc2c1 (stereo not given)
AC50 [1]: 25.1 µM [falling, partial curve]

Cc1ccc(-n2ncc3c(Nc4ccc5c(c4)OCCO5)ncnc32)cc1C
AC50 [1]: 6.31 µM [falling, partial curve]

CCCc1nnc(NC(=O)Cc2coc3cc(C)cc(C)c23)s1
AC50 [1]: 7.94 µM [rising, single point]

O=C(CSc1nnc(CNC(=O)c2cccs2)o1)c1ccc(Cl)cc1
AC50 [1]: 10 µM [falling, partial curve]

CCOC(=O)C1=C(c2ccccc2)NC(SCC(=O)Nc2ccc(C)cc2)=C(C#N)C1c1ccco1 (stereo not given)
AC50 [1]: 3.16 µM [falling, full curve, poor fit]

CCOc1ccc(Nc2nc3ccccc3n3c(CC)nnc23)cc1
AC50 [1]: 39.8 µM [falling, single point]

O=C(Nc1ccc(Br)cc1)C1CCN(S(=O)(=O)c2cccc3nsnc23)CC1
AC50 [1]: 12.6 µM [rising, partial curve]

O=C(NCC(c1ccco1)S(=O)(=O)c1ccc(Cl)cc1)c1ccccc1F (stereo not given)
AC50 [1]: 39.8 µM [falling, single point]

COc1ccc(-c2nn3c(=O)cc(CN4CCN(C(=O)Nc5ccc(C)c(Cl)c5)CC4)nc3s2)cc1
AC50 [1]: 0.126 µM [falling, full curve, poor fit]

Nn1c(COc2cccc(Br)c2)nnc1SCC(=O)N1CCc2ccccc2C1
AC50 [1]: 15.8 µM [falling, partial curve]

Nc1c(-c2nc(-c3ccc(Cl)cc3)cs2)c2ccccn2c1C(=O)c1ccc2c(c1)OCO2
AC50 [1]: 5.01 µM [falling, partial curve]

COCCCNC(=O)c1cc2c(=O)n3cccc(C)c3nc2s1
AC50 [1]: 0.2 µM [rising, full curve, poor fit]

CCCCc1nc2ccccc2n2c(-c3ccc(C)cc3)c3c(=O)n(C)c(=O)n(C)c3c12
AC50 [1]: 39.8 µM [falling, single point]

CSc1cccc(NC(=O)CN(c2ccccc2)S(=O)(=O)N(C)C)c1
AC50 [1]: 31.6 µM [falling, single point]

CC1CCN(S(=O)(=O)c2ccc3c(c2)N(CC(=O)NC(C)c2ccccc2)C(=O)CO3)CC1 (stereo not given)
AC50 [1]: 15.8 µM [falling, partial curve]

Cc1cc(N2CCCCC2)nc2ccc(NC(=O)c3cccc(F)c3)cc12
AC50 [1]: 31.6 µM [falling, single point]

Cc1nc(N2CCCC2)c2c(C(=O)N3CCN(c4cccc(Cl)c4)CC3)c(C)oc2n1
AC50 [1]: 25.1 µM [falling, partial curve]

C=Cc1ccc(CSc2nc(-c3ccccc3Cl)nc3c2Cc2c(CO)cnc(C)c2O3)cc1
AC50 [1]: 3.16 µM [falling, single point]

O=c1cnc2cnc(Nc3ccccc3)nc2n1C[C@H]1CCCO1
AC50 [2]: 2 µM [falling, partial curve] | AC50 [3]: 2.51 µM [falling, partial curve]

CCN(c1ccccc1)c1nnc(NC(=O)Nc2cccc(Br)c2)s1
AC50 [1]: 12.6 µM [falling, partial curve]

O=C1CC(c2nc3ccccc3n2CCCOc2ccccc2)CN1c1ccc(F)cc1 (stereo not given)
AC50 [1]: 25.1 µM [falling, single point]

COCCCNC(=O)CSc1c2c(nc3ccc(Cl)cc13)CCCC2
AC50 [2]: 25.1 µM [rising, partial curve] | AC50 [3]: 10 µM [falling, partial curve]

CC(=O)C1=C(C)NC(SCC(=O)c2cc(Cl)ccc2Cl)=C(C#N)C1c1ccco1 (stereo not given)
AC50 [1]: 10 µM [falling, partial curve]

CCN(c1ccc(OC)cc1)S(=O)(=O)c1nnc(NC(=O)c2ccccc2Cl)s1
AC50 [1]: 12.6 µM [falling, partial curve]

Cc1ccc(CNC(=O)c2ccc(CSCc3ccc(C)cc3)o2)cc1
AC50 [1]: 25.1 µM [falling, single point]

CCCCn1c(NCc2ccccc2O)nc2ccccc21
AC50 [1]: 15.8 µM [falling, partial curve]

Cc1ccc(NS(=O)(=O)c2ccc3[nH]c4c(c3c2)CCCCCC4)cc1Cl
AC50 [1]: 31.6 µM [falling, single point]

CCOC(=O)c1sc(NC(=O)c2cc(CC)on2)c(C(=O)OCC)c1C
AC50 [1]: 39.8 µM [falling, single point]

CCCOC(=O)c1ccc(NC(=O)Cc2csc(C)n2)cc1
AC50 [1]: 1.58 µM [rising, partial curve]

CCC(=O)N1CCc2cc(Br)cc(S(=O)(=O)NCc3ccc(Cl)cc3)c21
AC50 [1]: 15.8 µM [falling, partial curve]

O=C1c2ccccc2C(=O)N1CCc1nc(-c2ccccn2)no1
AC50 [1]: 7.94 µM [falling, partial curve]

CC(O)CNc1nc2ccccc2n1-c1ncnc2sc3c(c12)CCC3 (stereo not given)
AC50 [1]: 25.1 µM [falling, partial curve]

CCOC(=O)c1cnc2ccc(C)cc2c1Nc1ccc(OCc2ccccc2Cl)cc1
AC50 [1]: 10 µM [falling, partial curve]

COc1ccc2oc(-c3ccc(C)c(NC(=O)c4cccnc4)c3)nc2c1
AC50 [1]: 39.8 µM [falling, single point]

CC1CCN(c2oc(-c3cccs3)nc2S(=O)(=O)c2ccc(Cl)cc2)CC1
AC50 [1]: 12.6 µM [falling, partial curve]

Cc1cc(C(=O)CN(Cc2ccc(F)cc2)S(=O)(=O)c2ccc3c(c2)OCCO3)c(C)n1C
AC50 [1]: 12.6 µM [falling, partial curve]

Cc1ccc(OCC(=O)Nc2ccc3nc(SCC(=O)N4CCCC4)sc3c2)cc1
AC50 [1]: 31.6 µM [falling, partial curve]

CCOC(=O)c1c(SCC(=O)Nc2nc3ccc(C)cc3s2)nc(=O)[nH]c1C
AC50 [1]: 1.58 µM [falling, partial curve]

Oc1ccc(Nc2nc(N3CCCC3)c3ccccc3n2)cc1
AC50 [2]: 39.8 µM [falling, single point] | AC50 [3]: 15.8 µM [falling, partial curve]

Cc1cccc(CSc2cn(CC(=O)N3CCCCC3)c3ccccc23)c1
AC50 [1]: 10 µM [falling, partial curve]

N/C(=N\O)c1ccc(NC(=O)c2cccs2)cc1
AC50 [1]: 7.94 µM [falling, partial curve]

Clc1ccc(Cn2ncc3c(N4CCOCC4)ncnc32)cc1
AC50 [1]: 20 µM [falling, partial curve]

Cn1c(=O)n(C)c2cc(NS(=O)(=O)c3ccc(Br)cc3)c(NCc3ccccc3)cc21
AC50 [1]: 31.6 µM [falling, partial curve]

CCN(CC)CCCNC(=O)c1c(C)oc2ncn(CC(C)C)c(=O)c12
AC50 [1]: 39.8 µM [falling, single point]

CC1CCc2c(sc(NC(=O)CCCOc3ccc(C(C)(C)C)cc3)c2C(N)=O)C1 (stereo not given)
AC50 [1]: 12.6 µM [falling, partial curve]

C=CCOc1ccc2c(c1)c(S(=O)(=O)c1ccc(C)cc1)cn2COC
AC50 [1]: 31.6 µM [falling, single point]

COc1cc(Br)c(C2CC(=O)Nc3cc(OC)c(OC)c(OC)c32)cc1OC (stereo not given)
AC50 [1]: 20 µM [falling, partial curve, poor fit]

O=c1c2ccccc2nnn1CSc1nnc(-c2cccs2)n1Cc1ccccc1
AC50 [1]: 39.8 µM [falling, single point]

Cc1oc(-c2cccc(Br)c2)nc1CN1CCC(C(=O)NCCc2ccc(Cl)cc2)CC1
AC50 [1]: 15.8 µM [falling, single point]

CCOC(=O)c1ccc(N2C(=O)c3n[nH]c(-c4cccs4)c3C2c2cccc(F)c2)cc1 (stereo not given)
AC50 [1]: 20 µM [falling, partial curve]

O=C(Cn1c(=O)n(Cc2nc(-c3ccccc3)no2)c(=O)c2cc3c(cc21)OCO3)Nc1ccc(Cl)cc1
AC50 [1]: 6.31 µM [falling, full curve]

Cc1ccc(C)c(N2CCN(c3ccc(NC(=O)c4cccs4)cc3C(=O)O)CC2)c1
AC50 [1]: 0.01 µM [rising, full curve]

Cc1nc(N2CCN(Cc3ccc4c(c3)OCO4)CC2)c2oc3ccccc3c2n1
AC50 [1]: 15.8 µM [falling, partial curve]

Cc1cc(C)cc(NS(=O)(=O)c2ccc3c(c2)NC(=O)C(C)S3)c1 (stereo not given)
AC50 [1]: 10 µM [falling, partial curve]

CCn1c(C(=O)N2CCC(C(=O)NCCc3ccc(OC)cc3OC)CC2)cc2sccc21
AC50 [1]: 25.1 µM [falling, single point]
